In the supplement of paper PMC10470496:
Structures can show the parent of a compound that is named as a salt. The list shows a part of the results. Many values rest on one well or one pass, so single values are uncertain.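 Three clinical Candida auris isolates (clades III, IV and I) from the CDC resistance isolate bank were grown in RPMI-1640 at 35°C. Growth was background-corrected OD600 relative to same-plate vehicle-only wells. Hits required over 50% inhibition in at least two strains and a plate-corrected B-score above 0.1.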

Columns and labels:
Assay in all cases: growth relative to vehicle control (OD600 ratio) (fraction); higher = less inhibition
Settings in all cases: 24 h
[1] = tested on: C. auris AR-384
[2] = tested on: C. auris AR-386
[3] = tested on: C. auris AR-387

Work on `OCCN1C[C@H](O)[C@@H](O)[C@H](O)[C@H]1CO` [Miglitol] yielded a growth ([1]; 1 µM) of 0.97, a growth ([1]; 10 µM) of 0.82 and a growth ([2]; 1 µM) of 1. For the same compound, the growth ([2]; 10 µM) was 0.96, the growth ([3]; 1 µM) was 0.71 and the growth ([3]; 10 µM) was 0.83.

`O=C(O)CCc1nc2ccccc2[nH]1` [Procodazole] was tested, and the growth ([1]; 1 µM) was 1.11, the growth ([1]; 10 µM) was 1.31 and the growth ([2]; 1 µM) was 0.74. It also gave a growth ([2]; 10 µM) of 1.13, a growth ([3]; 1 µM) of 1.02 and a growth ([3]; 10 µM) of 1.22.

`O=C(O)CCCCCCCC(=O)O` [Azelaic acid] gave a growth ([1]; 1 µM) of 0.81, a growth ([1]; 10 µM) of 0.86 and a growth ([2]; 1 µM) of 0.75. The growth ([2]; 10 µM) was 0.68, the growth ([3]; 1 µM) was 0.7 and the growth ([3]; 10 µM) was 0.85.

With `c1ccc2c(CC3=NCCN3)cccc2c1` [Naphazoline HCl] the growth ([1]; 1 µM) was 0.75, the growth ([1]; 10 µM) was 0.79 and the growth ([2]; 1 µM) was 0.81. The growth ([2]; 10 µM) was 0.7, the growth ([3]; 1 µM) was 0.75 and the growth ([3]; 10 µM) was 1.09.

`O=C(O)C(=O)O.[NH-][C@@H]1CCCC[C@H]1[NH-].[Pt+2]` [Oxaliplatin] was tested, and the growth ([1]; 1 µM) was 0.67, the growth ([1]; 10 µM) was 0.92 and the growth ([2]; 1 µM) was 1.17. It also gave a growth ([2]; 10 µM) of 0.92, a growth ([3]; 1 µM) of 0.76 and a growth ([3]; 10 µM) of 0.85.

`Cc1ccc(C(=O)c2ccc(CC(=O)O)n2C)cc1` [Tolmetin Sodium] was tested, and the growth ([1]; 1 µM) was 0.73, the growth ([1]; 10 µM) was 1.26 and the growth ([2]; 1 µM) was 0.82. For the same compound, the growth ([2]; 10 µM) was 0.94, the growth ([3]; 1 µM) was 0.86 and the growth ([3]; 10 µM) was 0.94.

Compound `Nc1ncnc2c1ncn2[C@@H]1O[C@H](CO)[C@@H](O)[C@@H]1O` [Vidarabine] has a growth ([1]; 1 µM) of 0.98, a growth ([1]; 10 µM) of 0.94 and a growth ([2]; 1 µM) of 0.69. The growth ([2]; 10 µM) was 0.79, the growth ([3]; 1 µM) was 0.68 and the growth ([3]; 10 µM) was 0.98.

With `Cc1noc(NS(=O)(=O)c2ccc(N)cc2)c1C` [Sulfisoxazole] the growth ([1]; 1 µM) was 1.02, the growth ([1]; 10 µM) was 1.08 and the growth ([2]; 1 µM) was 1.18. The growth ([2]; 10 µM) was 1.03, the growth ([3]; 1 µM) was 0.66 and the growth ([3]; 10 µM) was 0.76.

Work on `CCCCCOc1ccc(-c2ccc(-c3ccc(C(=O)N[C@H]4C[C@@H](O)[C@@H](O)NC(=O)[C@@H]5[C@@H](O)[C@@H](C)CN5C(=O)[C@H]([C@@H](C)O)NC(=O)[C@H]([C@H](O)[C@@H](O)c5ccc(O)cc5)NC(=O)[C@@H]5C[C@@H](O)CN5C(=O)[C@H]([C@@H](C)O)NC4=O)cc3)cc2)cc1` yielded a growth ([1]; 1 µM) of 0.52, a growth ([1]; 10 µM) of 0.38 and a growth ([2]; 1 µM) of 0.14. The growth ([2]; 10 µM) was 0.11, the growth ([3]; 1 µM) was 0.09 and the growth ([3]; 10 µM) was 0.08.

In the case of `C=C1CC[C@H](O)C/C1=C/C=C1\CCC[C@]2(C)[C@@H]([C@H](C)CCCC(C)(C)O)CC[C@@H]12` [Calcifediol], the growth ([1]; 1 µM) is reported as 1.07, the growth ([1]; 10 µM) is reported as 0.64 and the growth ([2]; 1 µM) is reported as 0.95. It also gave a growth ([2]; 10 µM) of 1.02, a growth ([3]; 1 µM) of 0.92 and a growth ([3]; 10 µM) of 0.8.

`CC1(C)O[C@@H]2C[C@H]3[C@@H]4CCC5=CC(=O)CC[C@]5(C)[C@@]4(F)[C@@H](O)C[C@]3(C)[C@]2(C(=O)CCl)O1` [Halcinonide] gave a growth ([1]; 1 µM) of 0.96, a growth ([1]; 10 µM) of 1.01 and a growth ([2]; 1 µM) of 1.04. The growth ([2]; 10 µM) was 0.86, the growth ([3]; 1 µM) was 0.76 and the growth ([3]; 10 µM) was 0.96.

`CCN(CC)CCOCCOC(=O)C(CC)(CC)c1ccccc1` [Oxeladin Citrate] showed a growth ([1]; 1 µM) of 0.98, a growth ([1]; 10 µM) of 0.91 and a growth ([2]; 1 µM) of 0.97. The growth ([2]; 10 µM) was 0.92, the growth ([3]; 1 µM) was 0.94 and the growth ([3]; 10 µM) was 1.02.

Compound `CC(CCc1ccc(O)cc1)NCC(O)c1ccc(O)cc1` (centres undefined) [Ractopamine HCl] has a growth ([1]; 1 µM) of 1.04, a growth ([1]; 10 µM) of 0.83 and a growth ([2]; 1 µM) of 0.78. It also gave a growth ([2]; 10 µM) of 0.96, a growth ([3]; 1 µM) of 0.71 and a growth ([3]; 10 µM) of 0.87.

`N[C@@H](CC(=O)N1CCn2c(nnc2C(F)(F)F)C1)Cc1cc(F)c(F)cc1F` [Sitagliptin phosphate monohydrate] showed a growth ([1]; 1 µM) of 0.77, a growth ([1]; 10 µM) of 0.76 and a growth ([2]; 1 µM) of 1. It also gave a growth ([2]; 10 µM) of 0.81, a growth ([3]; 1 µM) of 0.7 and a growth ([3]; 10 µM) of 0.79.

In the case of `CC(C)C(=O)OCC(=O)[C@@]12O[C@H](C3CCCCC3)O[C@@H]1C[C@H]1[C@@H]3CCC4=CC(=O)C=C[C@]4(C)[C@H]3[C@@H](O)C[C@@]12C` [Ciclesonide], the growth ([1]; 1 µM) is reported as 0.77, the growth ([1]; 10 µM) is reported as 0.88 and the growth ([2]; 1 µM) is reported as 0.7. The growth ([2]; 10 µM) was 0.74, the growth ([3]; 1 µM) was 0.69 and the growth ([3]; 10 µM) was 0.68.

`Nc1[nH]cnc2ncnc1-2` [Adenine HCl] was tested, and the growth ([1]; 1 µM) was 0.92, the growth ([1]; 10 µM) was 0.71 and the growth ([2]; 1 µM) was 0.93. For the same compound, the growth ([2]; 10 µM) was 0.89, the growth ([3]; 1 µM) was 0.91 and the growth ([3]; 10 µM) was 0.86.

Compound `CNC[C@H](O)c1ccc(O)c(O)c1` [Epinephrine bitartrate] has a growth ([1]; 1 µM) of 0.75, a growth ([1]; 10 µM) of 0.78 and a growth ([2]; 1 µM) of 0.74. The growth ([2]; 10 µM) was 1.12, the growth ([3]; 1 µM) was 0.85 and the growth ([3]; 10 µM) was 0.93.

`COc1cc2nc(N3CCN(C(=O)C4CCCO4)CC3)nc(N)c2cc1OC` (centres undefined) [Terazosin HCl] was tested, and the growth ([1]; 1 µM) was 0.7, the growth ([1]; 10 µM) was 0.7 and the growth ([2]; 1 µM) was 0.55. For the same compound, the growth ([2]; 10 µM) was 0.78, the growth ([3]; 1 µM) was 0.65 and the growth ([3]; 10 µM) was 0.67.

`CCN(CCO)CCCC(C)Nc1ccnc2cc(Cl)ccc12` (centres undefined) [Hydroxychloroquine Sulfate] showed a growth ([1]; 1 µM) of 0.78, a growth ([1]; 10 µM) of 1.19 and a growth ([2]; 1 µM) of 0.94. It also gave a growth ([2]; 10 µM) of 1.11, a growth ([3]; 1 µM) of 0.83 and a growth ([3]; 10 µM) of 0.98.

`CCc1c(Cl)c(O)c(Cl)c(O)c1C(=O)O[C@H]1[C@H](O)[C@H](OC)[C@H](OC/C2=C\C=C\C[C@H](O)/C(C)=C/[C@H](CC)[C@@H](O[C@@H]3OC(C)(C)[C@@H](OC(=O)C(C)C)[C@H](O)[C@@H]3O)/C(C)=C/C(C)=C/C[C@@H]([C@@H](C)O)OC2=O)O[C@@H]1C` [Fidaxomicin] gave a growth ([1]; 1 µM) of 0.89, a growth ([1]; 10 µM) of 1.07 and a growth ([2]; 1 µM) of 1.05. The growth ([2]; 10 µM) was 1.1, the growth ([3]; 1 µM) was 1.21 and the growth ([3]; 10 µM) was 1.26.

`CCCS(=O)(=O)Nc1ccc(F)c(C(=O)c2c[nH]c3ncc(-c4ccc(Cl)cc4)cc23)c1F` [Vemurafenib (PLX4032, RG7204)] showed a growth ([1]; 1 µM) of 0.96, a growth ([1]; 10 µM) of 0.69 and a growth ([2]; 1 µM) of 0.98. For the same compound, the growth ([2]; 10 µM) was 1.14, the growth ([3]; 1 µM) was 0.79 and the growth ([3]; 10 µM) was 0.91.

With `Cc1ccc(=O)n(-c2ccccc2)c1` [Pirfenidone] the growth ([1]; 1 µM) was 0.9, the growth ([1]; 10 µM) was 0.96 and the growth ([2]; 1 µM) was 0.74. For the same compound, the growth ([2]; 10 µM) was 0.93, the growth ([3]; 1 µM) was 0.71 and the growth ([3]; 10 µM) was 0.99.

`C[C@@H]1C[C@H]2[C@@H]3CCC4=CC(=O)C=C[C@]4(C)[C@@]3(F)[C@@H](O)C[C@]2(C)[C@@]1(O)C(=O)CO` [Dexamethasone (DHAP)] was tested, and the growth ([1]; 1 µM) was 0.79, the growth ([1]; 10 µM) was 1.24 and the growth ([2]; 1 µM) was 1.09. For the same compound, the growth ([2]; 10 µM) was 0.68, the growth ([3]; 1 µM) was 0.67 and the growth ([3]; 10 µM) was 0.72.

`COc1cccc(CCc2ccccc2OCC(CN(C)C)OC(=O)CCC(=O)O)c1` (centres undefined) [Sarpogrelate hydrochloride] was tested, and the growth ([1]; 1 µM) was 1.15, the growth ([1]; 10 µM) was 0.88 and the growth ([2]; 1 µM) was 1.06. For the same compound, the growth ([2]; 10 µM) was 0.52, the growth ([3]; 1 µM) was 0.55 and the growth ([3]; 10 µM) was 0.75.
